Results of single-concentration screens

Chains of the proteins cited; added tags and fusions are not shown. Residues count along the entry.
UniProt Q8IDJ8, 1-583: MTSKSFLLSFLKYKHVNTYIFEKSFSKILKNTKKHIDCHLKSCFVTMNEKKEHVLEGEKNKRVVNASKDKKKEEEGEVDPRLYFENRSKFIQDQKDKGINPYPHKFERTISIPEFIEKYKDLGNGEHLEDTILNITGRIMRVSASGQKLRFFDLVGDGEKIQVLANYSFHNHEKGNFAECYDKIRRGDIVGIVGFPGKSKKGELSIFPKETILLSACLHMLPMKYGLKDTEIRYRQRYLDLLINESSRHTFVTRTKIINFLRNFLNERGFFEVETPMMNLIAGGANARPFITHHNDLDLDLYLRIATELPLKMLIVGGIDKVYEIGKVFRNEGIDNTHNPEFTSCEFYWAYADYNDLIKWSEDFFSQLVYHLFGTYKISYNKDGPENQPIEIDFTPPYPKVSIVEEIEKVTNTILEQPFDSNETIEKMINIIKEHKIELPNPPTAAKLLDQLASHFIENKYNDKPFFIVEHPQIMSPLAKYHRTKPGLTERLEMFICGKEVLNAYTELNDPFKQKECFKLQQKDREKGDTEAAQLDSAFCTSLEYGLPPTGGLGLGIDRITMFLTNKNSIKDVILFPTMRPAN
UniProt I6X8D2, whole entry: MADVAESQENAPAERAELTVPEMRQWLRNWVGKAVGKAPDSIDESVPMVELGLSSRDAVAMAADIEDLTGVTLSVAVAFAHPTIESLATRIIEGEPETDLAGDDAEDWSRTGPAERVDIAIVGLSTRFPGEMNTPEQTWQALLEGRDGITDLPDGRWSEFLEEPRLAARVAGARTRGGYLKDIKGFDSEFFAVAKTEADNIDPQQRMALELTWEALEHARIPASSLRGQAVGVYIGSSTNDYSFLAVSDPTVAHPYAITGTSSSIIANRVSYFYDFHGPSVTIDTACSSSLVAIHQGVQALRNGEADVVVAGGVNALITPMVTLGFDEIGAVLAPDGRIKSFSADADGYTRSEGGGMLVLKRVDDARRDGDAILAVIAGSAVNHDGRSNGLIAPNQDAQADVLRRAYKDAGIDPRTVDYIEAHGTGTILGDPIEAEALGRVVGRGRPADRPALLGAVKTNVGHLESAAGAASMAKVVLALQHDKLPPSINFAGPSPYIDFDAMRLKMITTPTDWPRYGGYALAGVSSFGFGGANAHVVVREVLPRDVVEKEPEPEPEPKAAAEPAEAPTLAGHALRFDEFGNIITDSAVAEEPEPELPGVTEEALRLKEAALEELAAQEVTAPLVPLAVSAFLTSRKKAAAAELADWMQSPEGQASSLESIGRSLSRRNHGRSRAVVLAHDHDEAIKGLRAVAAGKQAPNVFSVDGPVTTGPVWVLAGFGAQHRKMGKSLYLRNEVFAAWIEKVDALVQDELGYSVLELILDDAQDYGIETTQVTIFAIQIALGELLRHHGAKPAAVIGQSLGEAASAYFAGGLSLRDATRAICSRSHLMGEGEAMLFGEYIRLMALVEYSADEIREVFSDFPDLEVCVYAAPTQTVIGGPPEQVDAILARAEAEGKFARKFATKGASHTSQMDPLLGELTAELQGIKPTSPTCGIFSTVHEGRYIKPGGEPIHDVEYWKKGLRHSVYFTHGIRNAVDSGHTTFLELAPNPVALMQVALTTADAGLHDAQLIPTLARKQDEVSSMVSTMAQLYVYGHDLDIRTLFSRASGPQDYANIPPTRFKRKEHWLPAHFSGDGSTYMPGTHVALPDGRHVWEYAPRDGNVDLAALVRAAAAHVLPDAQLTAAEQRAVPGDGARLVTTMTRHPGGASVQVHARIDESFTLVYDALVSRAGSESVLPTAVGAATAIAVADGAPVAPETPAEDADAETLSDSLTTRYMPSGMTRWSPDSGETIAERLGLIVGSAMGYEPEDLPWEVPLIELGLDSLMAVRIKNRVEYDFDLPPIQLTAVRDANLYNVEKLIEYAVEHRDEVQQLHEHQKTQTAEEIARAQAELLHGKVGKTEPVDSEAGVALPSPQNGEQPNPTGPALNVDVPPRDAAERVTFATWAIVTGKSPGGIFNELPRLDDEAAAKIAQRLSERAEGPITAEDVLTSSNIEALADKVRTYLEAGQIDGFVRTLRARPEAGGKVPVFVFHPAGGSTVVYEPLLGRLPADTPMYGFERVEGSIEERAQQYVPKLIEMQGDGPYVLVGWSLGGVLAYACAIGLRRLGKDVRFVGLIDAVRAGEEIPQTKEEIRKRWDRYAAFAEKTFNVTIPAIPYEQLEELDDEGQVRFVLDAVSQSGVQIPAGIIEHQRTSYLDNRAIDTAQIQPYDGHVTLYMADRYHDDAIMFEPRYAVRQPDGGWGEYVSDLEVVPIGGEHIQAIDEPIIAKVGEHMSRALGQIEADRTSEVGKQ
UniProt P9WNZ1, whole entry: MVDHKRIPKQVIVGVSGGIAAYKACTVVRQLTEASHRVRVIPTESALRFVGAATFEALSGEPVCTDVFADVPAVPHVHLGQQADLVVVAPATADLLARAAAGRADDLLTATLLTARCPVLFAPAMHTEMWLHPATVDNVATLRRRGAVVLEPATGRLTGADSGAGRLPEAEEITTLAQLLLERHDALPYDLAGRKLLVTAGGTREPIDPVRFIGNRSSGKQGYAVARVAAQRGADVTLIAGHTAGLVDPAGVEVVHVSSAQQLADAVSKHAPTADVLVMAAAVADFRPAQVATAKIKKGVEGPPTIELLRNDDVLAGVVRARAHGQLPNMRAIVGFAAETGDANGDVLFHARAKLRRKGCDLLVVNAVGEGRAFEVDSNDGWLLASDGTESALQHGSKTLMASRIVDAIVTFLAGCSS
UniProt Q4DA54, 1-478: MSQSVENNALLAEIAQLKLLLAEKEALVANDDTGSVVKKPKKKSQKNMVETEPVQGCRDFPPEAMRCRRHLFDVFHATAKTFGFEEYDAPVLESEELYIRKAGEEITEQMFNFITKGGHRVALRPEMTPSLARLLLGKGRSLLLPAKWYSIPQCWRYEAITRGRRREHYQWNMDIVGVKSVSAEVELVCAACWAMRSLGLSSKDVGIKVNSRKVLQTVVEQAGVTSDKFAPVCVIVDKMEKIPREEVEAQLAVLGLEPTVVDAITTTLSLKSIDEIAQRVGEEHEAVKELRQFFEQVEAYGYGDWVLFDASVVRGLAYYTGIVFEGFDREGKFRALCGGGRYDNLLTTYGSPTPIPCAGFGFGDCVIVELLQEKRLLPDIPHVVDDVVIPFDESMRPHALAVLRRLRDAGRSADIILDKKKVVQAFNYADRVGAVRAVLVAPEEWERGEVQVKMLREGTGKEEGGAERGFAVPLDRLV
UniProt P9WFT3, whole entry: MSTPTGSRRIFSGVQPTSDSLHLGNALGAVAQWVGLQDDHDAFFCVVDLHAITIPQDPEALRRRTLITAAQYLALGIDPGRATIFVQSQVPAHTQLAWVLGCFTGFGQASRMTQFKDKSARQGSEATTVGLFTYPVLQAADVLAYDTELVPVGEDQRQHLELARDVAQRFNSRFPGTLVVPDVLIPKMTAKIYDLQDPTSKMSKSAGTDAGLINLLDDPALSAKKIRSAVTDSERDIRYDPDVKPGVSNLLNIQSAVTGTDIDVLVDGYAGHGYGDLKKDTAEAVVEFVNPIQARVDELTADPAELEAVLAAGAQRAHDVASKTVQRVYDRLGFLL
UniProt P9WPC5, whole entry: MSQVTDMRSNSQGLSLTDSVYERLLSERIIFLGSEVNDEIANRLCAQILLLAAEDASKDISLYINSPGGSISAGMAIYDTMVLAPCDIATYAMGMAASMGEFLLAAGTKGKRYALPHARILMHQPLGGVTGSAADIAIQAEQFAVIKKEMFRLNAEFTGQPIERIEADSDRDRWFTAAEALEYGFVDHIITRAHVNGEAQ
UniProt P9WPC3, whole entry partner: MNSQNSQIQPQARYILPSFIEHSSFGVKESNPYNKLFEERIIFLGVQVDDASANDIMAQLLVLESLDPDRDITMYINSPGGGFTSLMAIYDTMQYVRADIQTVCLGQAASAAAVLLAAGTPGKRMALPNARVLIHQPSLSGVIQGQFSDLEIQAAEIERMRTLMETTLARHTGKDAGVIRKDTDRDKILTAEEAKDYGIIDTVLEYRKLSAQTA

From ChEMBL document CHEMBL3988442, “University of Dundee, Small-Polar-MMV Screening Library” (2021).

PfKRS1: 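Lysine-tRNA ligase, Plasmodium falciparum 3D7 (UniProt Q8IDJ8). Enzyme assay of the cytosolic lysyl-tRNA synthetase in 384-well plates, read by luminescence. Compounds at 30 µM. Higher reads as stronger inhibition, judged from the few compounds that gave an IC50. Size under these conditions: about 69,000 compounds, about 49 of them at 50% or above in at least one test.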
Pks13 thioesterase: 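Polyketide synthase Pks13, Mycobacterium tuberculosis (UniProt I6X8D2). Enzyme assay of the thioesterase domain of polyketide synthase 13; the read-out is not stated. Concentration: 30 µM. Higher reads as stronger inhibition (inferred from which compounds were picked for retests). Size under these conditions: about 67,000 compounds, about 300 of them at 50% or above in at least one test.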
CoaBC: 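Coenzyme A biosynthesis protein CoaBC, Mycobacterium tuberculosis (UniProt P9WNZ1). Enzyme assay of CoaBC with a phosphate dye (Biomol Green) read at 650 nm. Tested at 30 µM. Direction is inferred from only a few compounds that gave an IC50; most scored high, so higher reads as stronger inhibition. Most strong results did not repeat in a second test. About 67,000 compounds were tested under these conditions; 0.06% (about 40) showed 50% or more at least once.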
TcHisRS: 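Histidine-tRNA ligase, Trypanosoma cruzi CL Brener (UniProt Q4DA54). Enzyme assay of histidyl-tRNA synthetase; the read-out is not stated. Tested at 30 µM. Higher reads as stronger inhibition (inferred: compounds with an IC50 in retests scored well above the rest). Of about 69,000 compounds tested this way, about 31 (0.045%) reached 50% or more in at least one test.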
MtTrpRS: 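Enzyme assay of tryptophanyl-tRNA synthetase; the read-out is not stated. Target: Tryptophan-tRNA ligase, Mycobacterium tuberculosis (UniProt P9WFT3). Compounds at 10 µM. Direction is not recorded; retested compounds ran higher, which suggests that high means inhibition. Of about 65,000 compounds tested this way, about 64 (0.098%) reached 50% or more in at least one test.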
ClpP1P2: 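ClpP1P2, Mycobacterium tuberculosis (UniProt P9WPC5 and UniProt P9WPC3). Protease assay of ClpP1P2, read by the AMC dye that it sets free. Compounds at 50 µM. Direction is inferred from only a few compounds that gave an IC50; most scored high, so higher reads as stronger inhibition. Most other retested compounds had strongly negative values. Size under these conditions: about 69,000 compounds, about 10 of them at 50% or above in at least one test.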

Each number is a percent effect as filed. The controls that fix the scale are not given in the record; negative values are as filed. The compounds are a random part of those screened.

Compound: COc1cccc(Cl)c1C(C(=O)O)N1CCC(Cn2cccn2)CC1 (stereo not drawn)
PfKRS1: -0.1691%
Pks13 thioesterase: -9.165%
CoaBC: -6.21%
TcHisRS: -2.155%
MtTrpRS: -0.8961%
ClpP1P2: 1.225%

Compound: O=C(N[C@@H]1CC[C@@H](n2ccnc2)[C@@H]1O)c1cc2c(s1)CCC2
PfKRS1: 1.039%
Pks13 thioesterase: -13.48%
CoaBC: 0.9804%
TcHisRS: 9.574%
ClpP1P2: -3.164%

Compound: Cc1ccc(NC(=O)Cn2ncc(SCC(N)=O)c(Cl)c2=O)cc1
PfKRS1: 4.351%
Pks13 thioesterase: 1.412%
CoaBC: -0.5089%
TcHisRS: 6.024%
MtTrpRS: -1.765%
ClpP1P2: -3.661%

Compound: Cc1nc(C2CCCN(C(=O)c3sc(C)nc3C)C2)no1 (stereo not drawn)
PfKRS1: 1.034%
Pks13 thioesterase: -3.782%
CoaBC: -1.282%
TcHisRS: 5.911%
MtTrpRS: 4.85%
ClpP1P2: 12.76%

Compound: CN1C(=O)CC(C(=O)O)C12CCN(Cc1ccc(F)c(Cl)c1)CC2 (stereo not drawn)
PfKRS1: 3.284%
Pks13 thioesterase: 2.281%
CoaBC: 5.882%
TcHisRS: 3.279%
MtTrpRS: -3.466%
ClpP1P2: -20.08%

Compound: O=C(CCc1cccnc1)N1CCC(c2cnccn2)CC1
PfKRS1: 0.3763%
Pks13 thioesterase: -3.231%
CoaBC: 2.433%
TcHisRS: 1.493%
MtTrpRS: 0.1739%
ClpP1P2: -0.7912%

Compound: CC(C)c1nc(CC(=O)Nc2nc(CN3CCCCCC3)cs2)cs1
PfKRS1: 3.901%
Pks13 thioesterase: -13.67%
CoaBC: 2.821%
TcHisRS: 17.74%
MtTrpRS: 1.173%
ClpP1P2: -6.963%

Compound: CC(c1ccc(F)cc1)n1ccnc1-c1cc2n(n1)CCCNC2 (stereo not drawn)
PfKRS1: 3.857%
Pks13 thioesterase: -19.05%
CoaBC: 3.045%
TcHisRS: 8.929%
MtTrpRS: -0.2863%
ClpP1P2: -3.449%

Compound: CCN(C)C1COC2(CCN(C(=O)c3ccc4[nH]ccc4c3)CC2)C1 (stereo not drawn)
PfKRS1: 5.644%
Pks13 thioesterase: -14.74%
CoaBC: 4.58%
TcHisRS: 7.767%
MtTrpRS: -5.901%
ClpP1P2: -20.64%

Compound: COc1ncc(NS(=O)(=O)c2ccc(F)cc2F)cn1
PfKRS1: 1.512%
Pks13 thioesterase: -30.72%
CoaBC: -12.18%
TcHisRS: 1.111%
MtTrpRS: 3.431%
ClpP1P2: -0.4067%

Compound: O=C(c1ccnnc1)N1CCC2(CCN(c3ccsc3)C2=O)C1 (stereo not drawn)
PfKRS1: 1.517%
Pks13 thioesterase: -35.87%
CoaBC: -3.268%
TcHisRS: -7.65%
MtTrpRS: 1.844%
ClpP1P2: -10.97%

Compound: Cc1cccc(S(=O)(=O)N2Cc3nccn3CC(CN(C)C)C2)c1 (stereo not drawn)
PfKRS1: 2.555%
Pks13 thioesterase: -22.97%
CoaBC: 4.332%
TcHisRS: 4.523%
ClpP1P2: -14.47%

Compound: CCCN1CC2(CCN(C)CC2)CC1C(=O)NCCn1nc(C)nc1C (stereo not drawn)
PfKRS1: 0.5132%
Pks13 thioesterase: -2.283%
CoaBC: -3.371%
TcHisRS: 6.122%
MtTrpRS: -0.3127%
ClpP1P2: -8.445%

Compound: CO[C@@H]1CC[C@H]2[C@H]1OCCN2Cc1ccc(F)cc1
PfKRS1: 4.859%
Pks13 thioesterase: -8.083%
CoaBC: -3.576%
TcHisRS: 1.905%
MtTrpRS: -9.309%
ClpP1P2: -18.53%

Compound: O=C(NCc1cc(=O)n2c(n1)CN(CC1CCOC1)CCC2)C1CC1 (stereo not drawn)
PfKRS1: 3.807%
Pks13 thioesterase: -12.42%
CoaBC: 6.237%
TcHisRS: 0.8264%
MtTrpRS: 4.523%
ClpP1P2: -10.37%

Compound: COCc1ccccc1C(=O)N1CCCC(n2nc(C)cc2C)C1 (stereo not drawn)
PfKRS1: 3.259%
Pks13 thioesterase: -19.07%
CoaBC: -5.913%
TcHisRS: 2.256%
MtTrpRS: -1.338%
ClpP1P2: 0.09725%

Once more, the final 2:

Compound	PfKRS1	Pks13 thioesterase	CoaBC	TcHisRS	MtTrpRS	ClpP1P2
O=C(NCc1cc(=O)n2c(n1)CN(CC1CCOC1)CCC2)C1CC1 (stereo not drawn)	3.807%	-12.42%	6.237%	0.8264%	4.523%	-10.37%
COCc1ccccc1C(=O)N1CCCC(n2nc(C)cc2C)C1 (stereo not drawn)	3.259%	-19.07%	-5.913%	2.256%	-1.338%	0.09725%